Article PMC12631878, “Single‐Cell Transcriptome Analysis Reveals That Hmga2 Regulates Neuroinflammation and Retinal Function by Modulating Müller Cell Autophagy Through PI3K/AKT Signaling Following MCAO‐Induced Retinal Ischemia” (Advanced Science, 2025)

Molecular target: phosphoinositide 3-kinase (PI3K) (mouse (endogenous in primary Müller cells))
Assay: co-IP; Müller cells lysed in RIPA buffer, pre-cleared with agarose beads, incubated overnight at 4 °C with specific primary antibody (anti-Hmga2 or anti-PI3K) or 1 µg IgG; immunoprecipitates analysed by immunoblotting

B1: Hmga2 (protein used in biolayer interferometry) (natural protein, UniProt P52927 1-108, looked up)
chain: MSARGEGAGQPSTSAQGQPAAPVPQKRGRGRPRKQQQEPTCEPSPKRPRGRPKGSKNKSPSKAAQKKAETIGEKRPRGRPRKWPQQVVQKKPAQETEETSSQESAEED
notes: Hmga2 as used in the biolayer interferometry assay; The main text has no methods for the BLI experiment
- binding: binds

No constants are given. Whether binding was seen depends on the method and setting. Binding seen in cells or lysates may run through a third protein. Binding calls can cover weak binding; strength is not graded here.
